# In PMC12898535:
# Sequences of proteins named here, by UniProt entry; tags and fusion partners are left off.
# UniProt O88271: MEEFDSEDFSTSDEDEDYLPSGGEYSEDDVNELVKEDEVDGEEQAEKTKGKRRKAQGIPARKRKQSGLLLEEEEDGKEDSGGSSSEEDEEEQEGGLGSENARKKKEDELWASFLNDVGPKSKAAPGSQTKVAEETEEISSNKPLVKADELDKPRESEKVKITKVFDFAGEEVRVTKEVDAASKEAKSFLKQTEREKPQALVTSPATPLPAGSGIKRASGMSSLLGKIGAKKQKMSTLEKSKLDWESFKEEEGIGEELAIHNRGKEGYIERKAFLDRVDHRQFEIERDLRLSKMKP
# UniProt P28740: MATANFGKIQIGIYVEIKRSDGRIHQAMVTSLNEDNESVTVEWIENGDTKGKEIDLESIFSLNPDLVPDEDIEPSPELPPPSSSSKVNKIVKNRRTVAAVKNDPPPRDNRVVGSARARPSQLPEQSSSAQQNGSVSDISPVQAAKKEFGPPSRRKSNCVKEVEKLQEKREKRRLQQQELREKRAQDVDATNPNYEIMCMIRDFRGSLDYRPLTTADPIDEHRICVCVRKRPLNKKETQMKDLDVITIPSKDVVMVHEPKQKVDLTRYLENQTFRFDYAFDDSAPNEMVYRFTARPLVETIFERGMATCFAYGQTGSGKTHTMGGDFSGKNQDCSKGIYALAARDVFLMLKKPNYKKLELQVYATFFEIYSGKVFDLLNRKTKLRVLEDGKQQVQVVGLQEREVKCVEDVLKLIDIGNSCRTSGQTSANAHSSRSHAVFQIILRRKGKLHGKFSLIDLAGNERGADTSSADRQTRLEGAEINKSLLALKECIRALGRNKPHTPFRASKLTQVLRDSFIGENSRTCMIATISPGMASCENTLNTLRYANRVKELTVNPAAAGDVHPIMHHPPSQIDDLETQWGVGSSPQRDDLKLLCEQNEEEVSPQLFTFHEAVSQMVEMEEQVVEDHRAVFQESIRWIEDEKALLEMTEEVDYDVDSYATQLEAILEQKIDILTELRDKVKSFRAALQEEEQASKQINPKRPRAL
# Target: 3xFLAG-tagged CFDP1 (mouse) (UniProt O88271)
# Assay: affinity purification with mass spectrometry; nuclear extracts of NIH3T3 cells stably expressing 3xFLAG-CFDP1; FLAG M2 magnetic beads, ~16 h at 4 °C; wash 1x TBS, 0.05% Triton X-100; elution with 3xFLAG peptide; SDS-PAGE and mass spectrometry
row,binding,Molecule
1,binds,TPX2 (NIH3T3) (from UniProt A2APB8 1-745)
2,binds,"RCC1 (protein, UniProt Q8VE37 1-421) MPPKRIAKRRSPPEDAIPKSKKVKVSHRSHNTEPGLVLTLGQGDVGQLGLGESVLERKKPALVPLLQDVVQAEAGGMHTVCLSQSGQVYSFGCNDEGALGRDTSVEGSEMVPGKVELQEKVVQVSAGDSHTAALTEDGRVFLWGSFRDNNGVIGLLEPMKKSMVPVQVQLDAPVVKVASGNDHLVMLTNDGDLYTLGCGEQGQLGRVPELFANRGGRQGLGRLLVPRCVLLKSRGTRGRVRFQDAFCGAYFTFAISREGHVYGFGLSNYHQLGTPGTGSCFIPQNLTSFKNSTKSWVGFSGGQHHTVCMDSEGKAYSLGRAEYGRLGLGEGAEEKSIPTLISRLPVVSSVACGASVGYAVSKDGRVFAWGMGTNYQLGTGQDEDAWSPVEMTGKQLENRVVLTVSSGGQHTVLLVKDQAQS"

# Continued, molecule first:
row,Molecule,binding
1,Kif2a (from UniProt P28740 1-705),binds
2,"Kif2c/MCAK (protein, UniProt Q922S8 1-721) MESLHARLFPGLSINIQRSNGLIHPANISTVNVEKSCVSVEWIEGGTTKGKEIDIDDVAAINPELLQLLPLRPKDSLPLQENVTVPKQKRKSVNSKIPALKEGLRSRSTRMSTVSEVRIPAQENEMEVELPVPTNSRKQFAIPSHPRASCSTVTELPLLMVSEEAEEQAHSTRSTSSANPGNSVRRKSCIVKEMEKMKNKREEKRAQNSELRIKRAQEYDSSFPNWEFARMIKEFRVTMECSPLTVTDPIEEHRICVCVRKRPLNKQELAKKEIDVISVPSKCLLLVHEPKLKVDLTKYLENQAFCFDFAFDETASNEVVYRFTARPLVQTIFEGGKATCFAYGQTGSGKTHTMGGDLSGKSQNASKGIYAMASRDVFLLKNQPRYRNLNLEVYVTFFEIYNGKVFDLLNKKAKLRVLEDSRQQVQVVGLQEYLVTCADDVIKMINMGSACRTSGQTFANSNSSRSHACFQILLRTKGRLHGKFSLVDLAGNERGADTSSADRQTRMEGAEINKSLLALKECIRALGQNKAHTPFRESKLTQVLRDSFIGENSRTCMIAMISPGISSCEYTLNTLRYADRVKELSPHSGPSGEQPVQMETEVMEASSNGTSLTGNEEEELSSQMSSFNEAMTQIRELEERALEELREIIQQGPNWLELSEMTDQPDYDLETFVNKAESALTQQAKQAKHFSALREVIKALRLAMQLEEQASKQINSKKRHQ",binds

# These are yes or no findings as the source states them, for the method shown. Binding seen in cells or lysates may run through a third protein. These calls come from enrichment with a bait or labelling near it, and not all partners need be listed.
